Here are results for one molecule from article PMC5052235.

Protein sequences, listed by entry. Tags and fused reporters are not part of them. Lines headed by an entry give the natural chain unless they say otherwise; changes in a name come on top.
UniProt P21707: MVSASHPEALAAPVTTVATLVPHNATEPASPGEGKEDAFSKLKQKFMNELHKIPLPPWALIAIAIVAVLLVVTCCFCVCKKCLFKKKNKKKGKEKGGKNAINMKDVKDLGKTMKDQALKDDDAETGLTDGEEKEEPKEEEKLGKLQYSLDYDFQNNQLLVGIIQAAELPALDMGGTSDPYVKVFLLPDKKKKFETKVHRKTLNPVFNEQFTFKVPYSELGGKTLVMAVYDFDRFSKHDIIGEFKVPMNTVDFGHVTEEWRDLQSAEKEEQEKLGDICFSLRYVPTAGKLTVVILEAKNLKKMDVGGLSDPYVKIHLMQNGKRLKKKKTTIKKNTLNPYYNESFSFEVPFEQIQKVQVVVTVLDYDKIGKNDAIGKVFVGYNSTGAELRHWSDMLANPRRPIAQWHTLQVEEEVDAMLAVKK

No constants are given. Whether binding was seen depends on the method and setting. A result given as binding can be weak or reduced; the word gives no strength.

This assay concerns the target GST-Syt I-C2AB (the cytoplasmic C2 domains of synaptotagmin I) (UniProt P21707). The assay can be described thus: pull-down; Glutathione-Sepharose bead-bound GST-Syt I-C2AB as bait, incubated with recombinant Rab3A overnight at 4 °C in HNa buffer (10 mM Hepes-NaOH, 150 mM NaCl, pH 7.4) with 0.5 % Triton X-100; blot with the anti-Rab3A polyclonal antibody and anti-GST; both purified.

B1: recombinant Rab3A protein (protein, UniProt P63012 1-220)
chain: MASATDSRYGQKESSDQNFDYMFKILIIGNSSVGKTSFLFRYADDSFTPAFVSTVGIDFKVKTIYRNDKRIKLQIWDTAGQERYRTITTAYYRGAMGFILMYDITNEESFNAVQDWSTQIKTYSWDNAQVLLVGNKCDMEDERVVSSERGRQLADHLGFEFFEASAKDNINVKQTFERLVDVICEKMSESLDTADPAVTGAKQGPQLTDQQAPPHQDCAC
For the molecule B1, the binding result is listed as “binds”.
